This note sets out measurements from publication PMC8047315.

Chains of the proteins cited; added tags and fusions are not shown.
UniProt P52952: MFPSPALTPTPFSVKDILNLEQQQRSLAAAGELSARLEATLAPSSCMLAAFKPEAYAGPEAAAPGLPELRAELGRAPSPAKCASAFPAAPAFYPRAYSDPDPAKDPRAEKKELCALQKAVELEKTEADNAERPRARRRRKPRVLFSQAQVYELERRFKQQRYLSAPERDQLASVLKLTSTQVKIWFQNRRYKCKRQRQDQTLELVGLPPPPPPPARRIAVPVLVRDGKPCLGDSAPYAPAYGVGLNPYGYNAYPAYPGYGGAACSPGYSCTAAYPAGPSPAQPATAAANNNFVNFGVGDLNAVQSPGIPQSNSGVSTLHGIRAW

The target in this assay is NK2 homeobox 5 (Nkx2.5) (UniProt P52952). Description: co-IP; anti-Nkx2.5 antibody (sc-376565X) immobilised on AminoLink plus coupling resin (Pierce Co-IP kit); total cell protein extracts of Lenti-NC-HCT116 and Lenti-Nkx2.5-HCT116 cells in IP lysis buffer; control mouse IgG resin; eluates blotted with anti-p53.

Results are given in words; binding and its absence hold for the method and conditions named. In cells and extracts the contact can be indirect. Some binding calls cover weakened binding; strength is not graded here.

With “tumor suppressor protein p53 (from UniProt P04637 1-393)”, the binding entry is on record as “binds”.
